Values of other authors as cited in US20070166367A1, “Adept or gdept producing acetaldehyde” (priority 2004, published 2007).
Where two headings read alike, the source gives them in different places.

Test system: Transfected CHO cells
Conditions: cited from earlier work

SMILES: CC=O [acetaldehyde]
- reported levels of AA produced (Holownia et al (1996)): 200 to 400 µM
- reported levels of AA produced (Holownia et al (1999)): 450 µM
- reported levels of AA produced (after 48 hours, Mapoles et al (1994)): 1000 µM
